# This is one part of the list.
# B1: Mermaid2 (Stilbonema majum) (protein)
# chain: MGSSHHHHHHSSGLVPRGSHMAASGWLRSPQGTVVKLYRRSLSWSKADEFCKDVDGRLVVDRTADMHLFLIKNVLKEKKSRVWVGLRRTAPHSRTWIWSDGTRQNEDDLNTNLWLRDEPNDAAGEEECALFMYSPWEKAWGLNDYLCRGGCRSYQFICEKGIR
# How the values were obtained:
# Experiment in all cases: glycan array binding signal (z-score within array); higher = stronger binding
# Settings in all cases: glycan notation: IUPAC condensed, linker removed
# [1] = target: Neu5Ac(a2-6)Gal(b1-4)GlcNAc(b1-2)Man(a1-3)[Neu5Ac(a2-3)Gal(b1-4)GlcNAc(b1-2)Man(a1-6)]Man(b1-4)GlcNAc(b1-4)GlcNAc
# Outline: (§1)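 From the Consortium for Functional Glycomics database, 3228 arrays were curated, keeping only those whose protein sequence was available. Binding is given as a within-array Z-score averaged across arrays sharing a protein sequence and across linkers. Negative Z-scores can be read as non-binding.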
# [2] = target: Neu5Ac(a2-6)Gal(b1-4)GlcNAc(b1-2)Man(a1-3)[Neu5Ac(a2-6)Gal(b1-4)GlcNAc(b1-2)Man(a1-6)]Man(b1-4)GlcNAc(b1-4)GlcNAc
# Outline: as §1
# [3] = target: Neu5Ac(a2-6)Gal(b1-4)GlcNAc(b1-2)Man(a1-3)[Neu5Ac(a2-6)Gal(b1-4)GlcNAc(b1-2)Man(a1-6)]Man(b1-4)GlcNAc(b1-4)[Fuc(a1-6)]GlcNAc
# Outline: as §1
# [4] = target: Neu5Ac(a2-6)Gal(b1-4)GlcNAc(b1-2)Man(a1-6)Man(b1-4)GlcNAc(b1-4)GlcNAc
# Outline: as §1
# [5] = target: Neu5Ac(a2-6)Gal(b1-4)GlcNAc(b1-2)Man(a1-6)[Gal(b1-4)GlcNAc(b1-2)Man(a1-3)]Man(b1-4)GlcNAc(b1-4)GlcNAc
# Outline: as §1
# [6] = target: Neu5Ac(a2-6)Gal(b1-4)GlcNAc(b1-2)Man(a1-6)[GlcNAc(b1-2)Man(a1-3)]Man(b1-4)GlcNAc(b1-4)GlcNAc
# Outline: as §1
# [7] = target: Neu5Ac(a2-6)Gal(b1-4)GlcNAc(b1-2)Man(a1-6)[Man(a1-3)]Man(b1-4)GlcNAc(b1-4)GlcNAc
# Outline: as §1
# [8] = target: Neu5Ac(a2-6)Gal(b1-4)GlcNAc(b1-2)[Neu5Ac(a2-6)Gal(b1-4)GlcNAc(b1-4)]Man(a1-3)[GlcNAc(b1-4)][Neu5Ac(a2-6)Gal(b1-4)GlcNAc(b1-2)[Neu5Ac(a2-6)Gal(b1-4)GlcNAc(b1-6)]Man(a1-6)]Man(b1-4)GlcNAc(b1-4)GlcNAc
# Outline: as §1
# [9] = target: Neu5Ac(a2-6)Gal(b1-4)GlcNAc(b1-2)[Neu5Ac(a2-6)Gal(b1-4)GlcNAc(b1-4)]Man(a1-3)[GlcNAc(b1-4)][Neu5Ac(a2-6)Gal(b1-4)GlcNAc(b1-4)Man(a1-6)]Man(b1-4)GlcNAc(b1-4)GlcNAc
# Outline: as §1
# [10] = target: Neu5Ac(a2-6)Gal(b1-4)GlcNAc(b1-2)[Neu5Ac(a2-6)Gal(b1-4)GlcNAc(b1-6)]Man(a1-6)[Neu5Ac(a2-6)Gal(b1-4)GlcNAc(b1-2)Man(a1-3)][GlcNAc(b1-4)]Man(b1-4)GlcNAc(b1-4)GlcNAc
# Outline: as §1
# [11] = target: Neu5Ac(a2-6)Gal(b1-4)GlcNAc(b1-3)Gal(b1-3)GlcNAc
# Outline: as §1
# [12] = target: Neu5Ac(a2-6)Gal(b1-4)GlcNAc(b1-3)Gal(b1-4)GlcNAc
# Outline: as §1
# [13] = target: Neu5Ac(a2-6)Gal(b1-4)GlcNAc(b1-3)Gal(b1-4)GlcNAc(b1-2)Man(a1-3)[Neu5Ac(a2-6)Gal(b1-4)GlcNAc(b1-3)Gal(b1-4)GlcNAc(b1-2)Man(a1-6)]GalNAc
# Outline: as §1
# [14] = target: Neu5Ac(a2-6)Gal(b1-4)GlcNAc(b1-3)Gal(b1-4)GlcNAc(b1-3)Gal(b1-4)GlcNAc
# Outline: as §1
# [15] = target: Neu5Ac(a2-6)Gal(b1-4)GlcNAc(b1-3)Gal(b1-4)GlcNAc(b1-3)Gal(b1-4)GlcNAc(b1-2)Man(a1-3)[Neu5Ac(a2-6)Gal(b1-4)GlcNAc(b1-3)Gal(b1-4)GlcNAc(b1-3)Gal(b1-4)GlcNAc(b1-2)Man(a1-6)]GalNAc
# Outline: as §1
# [16] = target: Neu5Ac(a2-6)Gal(b1-4)GlcNAc(b1-3)Gal(b1-4)GlcNAc(b1-3)GalNAc
# Outline: as §1
# [17] = target: Neu5Ac(a2-6)Gal(b1-4)GlcNAc(b1-3)Gal(b1-4)GlcNAc(b1-3)[Neu5Ac(a2-6)Gal(b1-4)GlcNAc(b1-3)Gal(b1-4)GlcNAc(b1-6)]GalNAc
# Outline: as §1
# [18] = target: Neu5Ac(a2-6)Gal(b1-4)GlcNAc(b1-3)Gal(b1-4)GlcNAc(b1-6)[Gal(b1-3)]GalNAc
# Outline: as §1
# [19] = target: Neu5Ac(a2-6)Gal(b1-4)GlcNAc(b1-3)Gal(b1-4)[Fuc(a1-3)]GlcNAc(b1-3)Gal(b1-4)[Fuc(a1-3)]GlcNAc
# Outline: as §1
# [20] = target: Neu5Ac(a2-6)Gal(b1-4)GlcNAc(b1-3)GalNAc
# Outline: as §1
# [21] = target: Neu5Ac(a2-6)Gal(b1-4)GlcNAc(b1-3)[Neu5Ac(a2-6)Gal(b1-4)GlcNAc(b1-6)]GalNAc
# Outline: as §1
# [22] = target: Neu5Ac(a2-6)Gal(b1-4)GlcNAc(b1-6)GalNAc
# Outline: as §1
# [23] = target: Neu5Ac(a2-6)Gal(b1-4)GlcNAc(b1-6)[Gal(b1-3)GlcNAc(b1-3)]Gal(b1-4)Glc
# Outline: as §1
# [24] = target: Neu5Ac(a2-6)Gal(b1-4)GlcNAc(b1-6)[Gal(b1-3)]GalNAc
# Outline: as §1
# [25] = target: Neu5Ac(a2-6)Gal(b1-4)GlcNAc6S
# Outline: as §1
# Neu5Ac(a2-6)GalNAc = target: Neu5Ac(a2-6)GalNAc
# Outline: as §1
# [26] = target: Neu5Ac(a2-6)GalNAc(b1-4)GlcNAc
# Outline: as §1
# [27] = target: Neu5Ac(a2-6)GalNAc(b1-4)GlcNAc6S
# Outline: as §1
# [28] = target: Neu5Ac(a2-6)GlcNAc(b1-4)GlcNAc
# Outline: as §1
# [29] = target: Neu5Ac(a2-6)GlcNAc(b1-4)GlcNAc(b1-4)GlcNAc
# Outline: as §1
binder,measurement,setting,value
B1,glycan array binding signal (z-score),[1],-0.109
same,glycan array binding signal (z-score),[2],-0.187
same,glycan array binding signal (z-score),[3],-0.781
same,glycan array binding signal (z-score),[4],-0.552
same,glycan array binding signal (z-score),[5],-0.551
same,glycan array binding signal (z-score),[6],-0.362
same,glycan array binding signal (z-score),[7],-0.021
same,glycan array binding signal (z-score),[8],-0.564
same,glycan array binding signal (z-score),[9],-0.706
same,glycan array binding signal (z-score),[10],-0.79
same,glycan array binding signal (z-score),[11],0.521
same,glycan array binding signal (z-score),[12],-0.49
same,glycan array binding signal (z-score),[13],-0.522
same,glycan array binding signal (z-score),[14],-0.484
same,glycan array binding signal (z-score),[15],0.952
same,glycan array binding signal (z-score),[16],-0.709
same,glycan array binding signal (z-score),[17],-0.133
same,glycan array binding signal (z-score),[18],-0.808
same,glycan array binding signal (z-score),[19],-0.092
same,glycan array binding signal (z-score),[20],-0.032
same,glycan array binding signal (z-score),[21],-0.642
same,glycan array binding signal (z-score),[22],-0.218
same,glycan array binding signal (z-score),[23],-0.2
same,glycan array binding signal (z-score),[24],-0.781
same,glycan array binding signal (z-score),[25],-0.632
same,glycan array binding signal (z-score),Neu5Ac(a2-6)GalNAc,-0.728
same,glycan array binding signal (z-score),[26],-0.781
same,glycan array binding signal (z-score),[27],-0.212
same,glycan array binding signal (z-score),[28],-0.763
same,glycan array binding signal (z-score),[29],0.021

# Seven entries from above, bar-delimited.
binder | measurement | setting | value
B1 | glycan array binding signal (z-score) | [9] | -0.706
same | glycan array binding signal (z-score) | [10] | -0.79
same | glycan array binding signal (z-score) | [11] | 0.521
same | glycan array binding signal (z-score) | [12] | -0.49
same | glycan array binding signal (z-score) | [13] | -0.522
same | glycan array binding signal (z-score) | [14] | -0.484
same | glycan array binding signal (z-score) | [15] | 0.952

# Source: the supplement of paper PMC8728848
